Taken from: PubChem BioAssay AID504786 (Drosophila RNAi Screening Center, 2011)

Purpose: 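Knock-downs reducing HIF reporter induction by the iron chelator DFO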 (primary screen)
Cells: Drosophila S2 cells with a stable HIF luciferase reporter
Reagents: long dsRNA against Drosophila genes, about 0.2 µg dsRNA per well of a 384-well plate
Timing: three days of knock-down, then 20 h of DFO before reading
Treatment: desferrioxamine (DFO) at 100 µM, an iron chelator that mimics hypoxia, for 20 h
Detection: 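HIF reporter luminescence in cells given 100 µM DFO for 20 h, using the mouse ldh-a hypoxia-response element, scored as per-plate z-scores; higher means greater loss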
Direction: z-score: higher = stronger loss of HIF reporter signal
The screen tested about 21,000 reagents; this is an unselected part of those that have a named target and a result. 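Primary screen; positive scores mean lost reporter signal, so the sign may be inverted from the usual convention.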 Names joined by + are all predicted targets of the reagent. Further read-outs or replicates are left out here.

Adat1 (GeneID 34787) [DRSC03479]
- z-score, replicate 1: -0.7

CG14563 (GeneID 40435) [DRSC11724]
- z-score, replicate 1: 0.1

Diap1 (GeneID 39753) [DRSC11404]
- z-score, replicate 1: 4.8

Afg3l2 (GeneID 39922) [DRSC10657]
- z-score, replicate 1: -0.2

CG1529 (GeneID 33077) [DRSC20515]
- z-score, replicate 1: -0.1

sau (GeneID 33402) [DRSC00694]
- z-score, replicate 1: -0.3

CG33127 (GeneID 318893) [DRSC00011]
- z-score, replicate 1: -0.1

Dr (GeneID 45285) [DRSC17002]
- z-score, replicate 1: -0.4

Lsp1beta (GeneID 33274) [DRSC00757]
- z-score, replicate 1: -0.3

dlg1 (GeneID 32083) [DRSC18895]
- z-score, replicate 1: 0.7

dlg1 (GeneID 32083) [DRSC18896]
- z-score, replicate 1: -0.1

dlg1 (GeneID 32083) [DRSC19767]
- z-score, replicate 1: -0.4

dlg1 (GeneID 32083) [DRSC20324]
- z-score, replicate 1: -0.2

Cht7 + tRNA:Cys-GCA-1-4 + tRNA:Lys-CTT-1-13 [DRSC08021]
- z-score, replicate 1: 0.3

CG9119 (GeneID 38124) [DRSC08620]
- z-score, replicate 1: 7.2

CG31337 (GeneID 318688) [DRSC12981]
- z-score, replicate 1: -0.2

Tbce (GeneID 35532) [DRSC04897]
- z-score, replicate 1: -0.1

Sfp38D (GeneID 8673971) [DRSC01810]
- z-score, replicate 1: -0.2

CG8501 (GeneID 36347) [DRSC07198]
- z-score, replicate 1: -0.1

Crys (GeneID 34604) [DRSC03294]
- z-score, replicate 1: 0.1

Cpr62Ba (GeneID 38239) [DRSC08403]
- z-score, replicate 1: -0.3

Single entries from the entries so far.
Lsp1beta (GeneID 33274) [DRSC00757], z-score, replicate 1 → -0.3
Value for Afg3l2 (GeneID 39922) [DRSC10657] under “z-score, replicate 1”: -0.2
Entry of sau (GeneID 33402) [DRSC00694] in “z-score, replicate 1”: -0.3
Sfp38D (GeneID 8673971) [DRSC01810], z-score, replicate 1 = -0.2

Further results:
wap (GeneID 33131) [DRSC20626]
- z-score, replicate 1: 0.2

sut4 (GeneID 36055) [DRSC07703]
- z-score, replicate 1: -0.3

Art8 (GeneID 34528) [DRSC02530]
- z-score, replicate 1: -0.3

CG15312 (GeneID 31940) [DRSC18000]
- z-score, replicate 1: 0.2

Jasper (GeneID 43576) [DRSC16352]
- z-score, replicate 1: -0.3

Muc30E (GeneID 2768931) [DRSC01101]
- z-score, replicate 1: 0.1

ms(3)76Cc (GeneID 40142) [DRSC11071]
- z-score, replicate 1: -0.3

Cndp2 (GeneID 35507) [DRSC04873]
- z-score, replicate 1: -0.1

CG11353 (GeneID 38560) [DRSC08182]
- z-score, replicate 1: -0.3

GstD1 (GeneID 41503) [DRSC16683]
- z-score, replicate 1: -0.3

Brd (GeneID 39620) [DRSC09685]
- z-score, replicate 1: -0.3

Doc1 (GeneID 39039) [DRSC11146]
- z-score, replicate 1: -0.3

CG6791 (GeneID 41391) [DRSC16118]
- z-score, replicate 1: -0.2

CG17782 (GeneID 42912) [DRSC15267]
- z-score, replicate 1: -0.4

Liprin-beta (GeneID 39524) [DRSC09795]
- z-score, replicate 1: 0

Rif1 (GeneID 246445) [DRSC05593]
- z-score, replicate 1: 0

Tob (GeneID 32574) [DRSC20294]
- z-score, replicate 1: -0.4

mRpS29 (GeneID 37563) [DRSC04398]
- z-score, replicate 1: 2

CG9826 (GeneID 37625) [DRSC04570]
- z-score, replicate 1: -0.4
